# Test results as given in PubChem BioAssay AID624291 (National Center for Advancing Translational Sciences (NCATS), 2012).
# Screen size: about 350,000 compounds; about 220 (0.063%) were called active. Inconclusive results, whose numbers are uncertain, are shown with a selection of clear calls. The call rests on the fitted dose curve; in most records, active means well fitted activation curve with a large enough effect; inconclusive means small, poorly fitted or top-dose-only effect; inactive means no such curve, though single readings can be large or run the other way. Potencies beside an inconclusive call are fits to weak or partial responses and may not hold up.
# Experiment: qHTS for Activators of Integrin-Mediated Alleviation for Muscular Dystrophy; further: nearly all actives have a fitted effect of over 60% in size
# Details: alpha7betagal myoblasts, beta-gal FDG fluorescence, 48 h; series mostly up to 38.3 µM
# Outline: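 Alpha7betagal+/- myoblasts (passage 13) were plated 16-24 hr, then exposed to compounds (1:260 dilution of DMSO stock) for 48 hours at 37C. After MPER lysis, β-galactosidase reporter activity was read as FDG fluorescence (ex 480/em 540) after 30 minutes.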
# Potency means the concentration at half of the fitted maximal effect.
row,Structure (SMILES),Potency
1,CSc1ccc(S(=O)(=O)N2CCC(C(=O)Nc3ccccc3C(F)(F)F)CC2)cc1,"inconclusive: 14.1 µM [activator, single point]"
2,CCN(c1ccc(OC)cc1)S(=O)(=O)c1nnc(NC(=O)CC(C)C)s1,"inconclusive: 3.16 µM [activator, single point]"
3,[N-]=[N+]=CC(=O)C(Cc1ccccc1)N1C(=O)c2ccccc2C1=O (centres undefined),inactive
4,Cc1nc(Nc2ccccc2Br)c2nnn(Cc3ccccc3)c2n1,inactive
5,COc1ccc(NC(=O)C2CC(=O)OC2c2ccccc2)cc1 (centres undefined),"inconclusive: 8.91 µM [activator, partial curve, poor fit]"
6,O=C(Nc1cccnc1)c1cc(-c2ccc(Br)cc2)nc2ccccc12,inactive
7,O=S(=O)(c1ccccc1Cl)N1CCC(Cc2ccccc2)CC1,"inconclusive: 2.82 µM [activator, single point]"
8,Cc1ccc(C(=O)COC(=O)CN2C(=O)C3C4C=CC(C4)C3C2=O)cc1C (centres undefined),"inconclusive: 28.2 µM [activator, single point]"
9,CC1CCN(S(=O)(=O)N2CCC(C(=O)NCCc3ccccc3)CC2)CC1,"inconclusive: 3.16 µM [activator, full curve, poor fit]"
10,O=C(COc1ncnc2sccc12)Nc1cccc(S(=O)(=O)N2CCCC2)c1,"inconclusive: 2.82 µM [activator, partial curve, poor fit]"
11,O=C(CSc1nc2ccccc2c(=O)n1CC1CCCO1)NCC1CCCO1 (centres undefined),inactive
12,C=CCn1c(=N)c(S(=O)(=O)c2ccc(C)c(C)c2)cc2c(=O)n3ccccc3nc21,inactive
13,Cc1cccc(-c2nc(CS(=O)CC(=O)N3CC(C)CC(C)C3)c(C)o2)c1 (centres undefined),"inconclusive: 3.55 µM [activator, single point]"
14,COc1ccc(CNC2CCCc3ccccc32)cc1OC (centres undefined),"inconclusive: 5.62 µM [activator, partial curve, poor fit]"
15,COC(=O)c1ccc2c(=O)[nH]c(CSc3nc(C)cs3)nc2c1,inactive
16,N#C/C(=C\c1ccc(N2CCOCC2)o1)C(=O)Nc1ccc(O)cc1,"inconclusive: 5.01 µM [activator, single point]"
17,CC(=O)c1ccccc1OCCn1nc(C(=O)O)c2ccccc2c1=O,"inconclusive: 28.2 µM [activator, single point]"
18,Cc1ccc(S(=O)(=O)NC(C)C(=O)NCc2ccc(Cl)cc2)cc1 (centres undefined),"inconclusive: 28.2 µM [activator, single point]"
19,Cc1cccn2c(=O)c3cc(C#N)c(=NC(=O)c4ccccc4)n(Cc4ccco4)c3nc12,"inconclusive: 2.82 µM [activator, full curve, poor fit]"
